The source of these data is article PMC9239148.

Chains of the proteins cited; added tags and fusions are not shown. Residues count along the entry.
UniProt P05121, residues 24-402: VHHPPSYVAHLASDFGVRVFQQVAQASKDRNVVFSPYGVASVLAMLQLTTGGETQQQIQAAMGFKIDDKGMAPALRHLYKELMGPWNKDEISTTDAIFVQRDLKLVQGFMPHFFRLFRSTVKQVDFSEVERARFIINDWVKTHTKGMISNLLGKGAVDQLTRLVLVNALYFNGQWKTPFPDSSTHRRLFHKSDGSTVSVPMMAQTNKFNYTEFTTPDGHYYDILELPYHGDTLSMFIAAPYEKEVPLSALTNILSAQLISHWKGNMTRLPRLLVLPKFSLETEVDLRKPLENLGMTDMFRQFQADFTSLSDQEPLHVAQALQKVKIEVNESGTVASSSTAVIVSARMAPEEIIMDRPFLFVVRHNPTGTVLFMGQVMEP
UniProt P01009, residues 25-418: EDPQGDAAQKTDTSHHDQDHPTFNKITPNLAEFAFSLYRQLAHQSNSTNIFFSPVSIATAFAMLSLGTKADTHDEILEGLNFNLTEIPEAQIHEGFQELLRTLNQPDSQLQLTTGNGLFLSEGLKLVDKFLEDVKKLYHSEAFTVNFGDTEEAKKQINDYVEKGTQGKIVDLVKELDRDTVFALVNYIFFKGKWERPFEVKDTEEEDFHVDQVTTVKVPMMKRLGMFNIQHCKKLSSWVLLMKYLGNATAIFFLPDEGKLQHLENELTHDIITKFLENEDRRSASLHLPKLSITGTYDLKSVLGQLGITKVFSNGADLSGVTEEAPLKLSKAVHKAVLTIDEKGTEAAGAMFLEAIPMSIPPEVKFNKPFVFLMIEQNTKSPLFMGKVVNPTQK
UniProt P01008, residues 33-464: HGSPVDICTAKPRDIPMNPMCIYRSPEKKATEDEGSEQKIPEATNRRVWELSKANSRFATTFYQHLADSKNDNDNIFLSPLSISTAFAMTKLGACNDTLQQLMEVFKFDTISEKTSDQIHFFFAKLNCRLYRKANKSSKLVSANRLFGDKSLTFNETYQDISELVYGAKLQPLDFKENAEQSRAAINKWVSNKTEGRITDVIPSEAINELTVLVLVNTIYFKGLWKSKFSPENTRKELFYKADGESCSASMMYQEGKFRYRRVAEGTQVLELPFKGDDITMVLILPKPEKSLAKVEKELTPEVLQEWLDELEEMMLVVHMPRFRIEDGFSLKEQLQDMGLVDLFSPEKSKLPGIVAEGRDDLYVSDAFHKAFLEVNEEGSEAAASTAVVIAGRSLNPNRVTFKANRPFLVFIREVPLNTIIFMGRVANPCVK
UniProt P00750, residues 36-562: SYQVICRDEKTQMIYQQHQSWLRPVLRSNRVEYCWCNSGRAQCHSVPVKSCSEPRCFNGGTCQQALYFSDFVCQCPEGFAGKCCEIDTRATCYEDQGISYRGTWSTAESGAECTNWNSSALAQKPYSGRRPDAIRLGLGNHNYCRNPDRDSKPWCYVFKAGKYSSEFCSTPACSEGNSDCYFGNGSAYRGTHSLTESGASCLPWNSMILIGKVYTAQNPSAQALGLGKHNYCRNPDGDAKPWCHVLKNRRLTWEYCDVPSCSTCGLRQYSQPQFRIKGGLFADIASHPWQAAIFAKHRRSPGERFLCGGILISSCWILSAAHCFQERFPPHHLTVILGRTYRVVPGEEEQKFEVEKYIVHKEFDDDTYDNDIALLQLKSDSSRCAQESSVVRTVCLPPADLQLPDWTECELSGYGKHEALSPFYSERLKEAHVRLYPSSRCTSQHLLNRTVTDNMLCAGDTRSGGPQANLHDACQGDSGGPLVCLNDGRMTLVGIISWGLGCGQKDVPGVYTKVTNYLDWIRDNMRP
UniProt O15393, residues 256-492: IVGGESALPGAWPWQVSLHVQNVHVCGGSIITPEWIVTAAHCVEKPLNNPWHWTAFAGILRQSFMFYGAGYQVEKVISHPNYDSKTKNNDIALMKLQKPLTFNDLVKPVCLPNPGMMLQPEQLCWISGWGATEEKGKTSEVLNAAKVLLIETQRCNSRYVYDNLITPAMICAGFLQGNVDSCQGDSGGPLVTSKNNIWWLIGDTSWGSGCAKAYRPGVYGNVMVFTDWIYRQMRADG

These are yes or no findings as the source states them, for the method shown. Some entries that bind do so weakly or less than the wild type.

Test in all cases: SPR; Serpin A1, C1 and E1 amine-coupled to a CM5 chip at pH 4 (5,200, 2,700 and 3,300 RU); analyte TMPRSS2 (125 nM to 7.81 nM) or tPA (1,000 nM to 1.95 nM) in 2-fold dilutions; 120 s association, 120 s dissociation, 30 uL/min; 25°C; 10 mM phosphate buffer pH 7.4, 140 mM NaCl, 0.27 mM KCl; Biacore T-200; both purified
The target in assay [1] is Recombinant SERPINE1 protein (plasminogen activator inhibitor 1) (human) (UniProt P05121).
Assay [2] deals with Recombinant SERPINA1 protein (alpha-1 antitrypsin) (human) (UniProt P01009).
Assay [3] has as its target Recombinant SERPINC1 protein (antithrombin III) (human) (UniProt P01008).

For the substance “Tissue plasminogen activator (from UniProt P00750 36-562) (enzyme)”, the binding entry in assay [1] is “binds”.

Turning to “Active recombinant TMPRSS2 (transmembrane serine protease 2) (from UniProt O15393 256-492) (enzyme)”, the binding entry in assay [1], in assay [2] and in assay [3] was “binds” in each case.
